# No constants are given. Whether binding was seen depends on the method and setting. Some entries that bind do so weakly or less than the wild type. Where a sequence is shown, tags or fusion partners need not be part of it.
# Chains of the proteins cited; added tags and fusions are not shown.
# UniProt P23198, whole entry: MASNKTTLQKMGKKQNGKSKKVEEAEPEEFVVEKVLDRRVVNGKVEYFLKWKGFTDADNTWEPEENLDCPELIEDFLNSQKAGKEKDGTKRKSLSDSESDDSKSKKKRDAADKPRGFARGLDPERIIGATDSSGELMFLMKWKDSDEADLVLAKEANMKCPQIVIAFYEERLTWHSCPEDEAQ
# UniProt Q6PDQ2, whole entry: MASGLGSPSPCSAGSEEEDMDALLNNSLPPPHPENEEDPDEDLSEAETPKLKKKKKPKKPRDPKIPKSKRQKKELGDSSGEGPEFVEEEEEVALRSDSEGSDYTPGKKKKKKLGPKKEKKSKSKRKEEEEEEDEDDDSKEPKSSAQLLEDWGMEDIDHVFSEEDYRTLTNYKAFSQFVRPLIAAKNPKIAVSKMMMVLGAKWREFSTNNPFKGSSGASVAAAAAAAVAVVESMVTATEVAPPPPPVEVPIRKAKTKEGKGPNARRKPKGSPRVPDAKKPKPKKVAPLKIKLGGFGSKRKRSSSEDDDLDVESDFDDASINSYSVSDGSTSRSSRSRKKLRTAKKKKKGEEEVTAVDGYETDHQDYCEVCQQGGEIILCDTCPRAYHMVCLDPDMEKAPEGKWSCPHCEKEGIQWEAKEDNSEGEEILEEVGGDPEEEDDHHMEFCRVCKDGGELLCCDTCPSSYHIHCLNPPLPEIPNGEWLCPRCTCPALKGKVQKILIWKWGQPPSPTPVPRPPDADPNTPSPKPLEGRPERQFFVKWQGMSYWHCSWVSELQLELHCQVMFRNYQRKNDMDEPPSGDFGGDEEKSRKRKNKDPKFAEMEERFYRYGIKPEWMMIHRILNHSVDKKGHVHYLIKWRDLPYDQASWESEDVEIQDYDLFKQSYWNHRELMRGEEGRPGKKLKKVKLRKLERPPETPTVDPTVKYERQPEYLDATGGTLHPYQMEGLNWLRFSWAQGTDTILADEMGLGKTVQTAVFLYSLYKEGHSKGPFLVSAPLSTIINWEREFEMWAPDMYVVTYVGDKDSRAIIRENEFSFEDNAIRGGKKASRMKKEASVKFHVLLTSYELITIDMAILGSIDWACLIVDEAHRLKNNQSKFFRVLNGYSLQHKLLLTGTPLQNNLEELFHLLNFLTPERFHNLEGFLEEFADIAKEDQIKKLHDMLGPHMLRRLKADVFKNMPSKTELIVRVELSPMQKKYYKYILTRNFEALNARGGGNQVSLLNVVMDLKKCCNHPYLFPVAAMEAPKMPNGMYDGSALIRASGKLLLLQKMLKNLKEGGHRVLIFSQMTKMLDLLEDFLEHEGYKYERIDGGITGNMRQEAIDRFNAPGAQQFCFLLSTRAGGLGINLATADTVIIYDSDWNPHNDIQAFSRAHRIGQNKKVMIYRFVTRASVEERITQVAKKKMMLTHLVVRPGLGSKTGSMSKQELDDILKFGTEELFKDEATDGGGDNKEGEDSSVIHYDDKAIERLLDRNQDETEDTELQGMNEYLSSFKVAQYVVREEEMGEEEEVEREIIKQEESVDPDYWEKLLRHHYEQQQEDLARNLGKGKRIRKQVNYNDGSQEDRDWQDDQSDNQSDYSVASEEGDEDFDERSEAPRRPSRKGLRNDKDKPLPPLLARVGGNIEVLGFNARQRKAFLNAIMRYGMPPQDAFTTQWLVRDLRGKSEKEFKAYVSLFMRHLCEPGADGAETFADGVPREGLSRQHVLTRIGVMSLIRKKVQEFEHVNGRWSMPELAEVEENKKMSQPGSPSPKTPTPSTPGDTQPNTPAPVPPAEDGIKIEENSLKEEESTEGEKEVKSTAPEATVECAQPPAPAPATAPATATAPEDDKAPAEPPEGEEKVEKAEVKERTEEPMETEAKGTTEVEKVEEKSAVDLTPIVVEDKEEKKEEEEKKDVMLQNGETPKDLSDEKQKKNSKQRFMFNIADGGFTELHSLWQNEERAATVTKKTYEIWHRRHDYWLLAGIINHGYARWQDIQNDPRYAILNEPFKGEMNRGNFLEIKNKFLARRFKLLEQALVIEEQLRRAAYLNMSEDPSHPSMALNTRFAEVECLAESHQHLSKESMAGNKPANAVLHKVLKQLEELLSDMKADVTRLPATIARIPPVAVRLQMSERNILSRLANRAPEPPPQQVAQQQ
# Target: Strep-tagged HP1γ (recombinant, full length) (UniProt P23198)
# Assay: co-purification
row,binding,Molecule
1,binds,"His6-tagged CHD4 (recombinant, full length) (from UniProt Q6PDQ2 1-1915)"
2,binds,"His6-tagged ADNP (recombinant, full length) (protein, UniProt Q9Z103 1-1108) MFQLPVNNLGSLRKARKTVKKILSDIGLEYCKEHIEDFKQFEPNDFYLKNTTWEDVGLWDPSLTKNQDYRTKPFCCSACPFSSKFFSAYKSHFRNVHSEDFENRILLNCPYCTFNADKKTLETHIKIFHAPNSSAPSSSLSTFKDKNKNDGLKPKQADNVEQAVYYCKKCTYRDPLYEIVRKHIYREHFQHVAAPYIAKAGEKSLNGAVSLGTNAREECNIHCKRCLFMPKSYEALVQHVIEDHERIGYQVTAMIGHTNVVVPRAKPLMLIAPKPQDKKGMGLPPRISSLASGNVRSLPSQQMVNRLSIPKPNLNSTGVNMMSNVHLQQNNYGVKSVGQSYGVGQSVRLGLGGNAPVSIPQQSQSVKQLLPSGNGRSFGLGAEQRPPAAARYSLQTANTSLPPGQVKSPSVSQSQASRVLGQSSSKPPPAATGPPPSNHCATQKWKICTICNELFPENVYSVHFEKEHKAEKVPAVANYIMKIHNFTSKCLYCNRYLPTDTLLNHMLIHGLSCPYCRSTFNDVEKMAAHMRMVHIDEEMGPKTDSTLSFDLTLQQGSHTNIHLLVTTYNLRDAPAESVAYHAQNNAPVPPKPQPKVQEKADVPVKSSPQAAVPYKKDVGKTLCPLCFSILKGPISDALAHHLRERHQVIQTVHPVEKKLTYKCIHCLGVYTSNMTASTITLHLVHCRGVGKTQNGQDKTNAPSRLNQSPGLAPVKRTYEQMEFPLLKKRKLEEDADSPSCFEEKPEEPVVLALDPKGHEDDSYEARKSFLTKYFNKQPYPTRREIEKLAASLWLWKSDIASHFSNKRKKCVRDCEKYKPGVLLGFNMKELNKVKHEMDFDAEWLFENHDEKDSRVNASKTVDKKHNLGKEDDSFSDSFEHLEEESNGSGSPFDPVFEVEPKIPSDNLEEPVPKVIPEGALESEKLDQKEEEEEEEEEDGSKYETIHLTEEPAKLMHDASDSEVDQDDVVEWKDGASPSESGPGSQQISDFEDNTCEMKPGTWSDESSQSEDARSSKPAAKKKATVQDDTEQLKWKNSSYGKVEGFWSKDQSQWENASENAERLPNPQIEWQNSTIDSEDGEQFDSMTDGVADPMHGSLTGVKLSSQQA"

# From article doi:10.1101/2025.07.02.662776
